# In the supplement of paper PMC4604168 (melanoma cell lines):
# This is one part of the list. Single values are uncertain, as repeats are few or missing.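 Imaging used 1,536-well plates; nuclei positive for cleaved PARP by antibody were divided by total DNA-stained nuclei to yield the apoptosis fraction. Doses for screening kept most cells viable, and cell lines differ markedly in resting and induced cleaved-PARP levels.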
# What was measured:
# Assay in all cases: cleaved PARP positive nuclei fraction relative to DMSO control; melanoma cells; higher = more apoptosis
# Details in all cases: library dose: low library concentration; 72 h
# 501Mel = tested on: 501Mel
# A101D = tested on: A101D
# A2058 = tested on: A2058
# A375 = tested on: A375
# C32 = tested on: C32
# CBRC008 = tested on: CBRC008 (line from a melanoma biopsy)
# CBRC013 = tested on: CBRC013 (line from a melanoma biopsy)
# CBRC014 = tested on: CBRC014 (line from a melanoma biopsy)
# CBRC016 = tested on: CBRC016 (line from a melanoma biopsy)
# CBRC017 = tested on: CBRC017 (line from a melanoma biopsy)
# COLO792 = tested on: COLO792
# COLO800 = tested on: COLO800
# COLO829 = tested on: COLO829
# G361 = tested on: G361
# IPC-298 = tested on: IPC-298
# IST-MEL1 = tested on: IST-MEL1
# LB2518-MEL = tested on: LB2518-MEL
# LOXIMVI = tested on: LOXIMVI
# MEL-HO = tested on: MEL-HO
SMILES,cleaved PARP positive nuclei fraction (501Mel),cleaved PARP positive nuclei fraction (A101D),cleaved PARP positive nuclei fraction (A2058),cleaved PARP positive nuclei fraction (A375),cleaved PARP positive nuclei fraction (C32),cleaved PARP positive nuclei fraction (CBRC008),cleaved PARP positive nuclei fraction (CBRC013),cleaved PARP positive nuclei fraction (CBRC014),cleaved PARP positive nuclei fraction (CBRC016),cleaved PARP positive nuclei fraction (CBRC017),cleaved PARP positive nuclei fraction (COLO792),cleaved PARP positive nuclei fraction (COLO800),cleaved PARP positive nuclei fraction (COLO829),cleaved PARP positive nuclei fraction (G361),cleaved PARP positive nuclei fraction (IPC-298),cleaved PARP positive nuclei fraction (IST-MEL1),cleaved PARP positive nuclei fraction (LB2518-MEL),cleaved PARP positive nuclei fraction (LOXIMVI),cleaved PARP positive nuclei fraction (MEL-HO)
"O=c1[nH]nc(Sc2ncc([N+](=O)[O-])s2)n1-c1ccc2c(c1)OCCO2 + Cc1cc(N2CCOCC2)cc2[nH]c(-c3c(NC[C@@H](O)c4cccc(Cl)c4)cc[nH]c3=O)nc12 [BMS536924] (first compound 0.2 µM, partner dose 0.2 µM)",93.8%,84.4%,64.3%,94.9%,192%,121%,161%,92.4%,122%,108%,104%,142%,97.6%,101%,138%,65.5%,169%,49.9%,172%
"Cc1cc(Nc2cc(N3CCN(C)CC3)nc(Sc3ccc(NC(=O)C4CC4)cc3)n2)n[nH]1 [Tozasertib] + CC(C)(C)c1cnc(CSc2cnc(NC(=O)C3CCNCC3)s2)o1 [SNS-032] (first compound 0.006 µM, partner dose 0.01 µM)",81.9%,140%,119%,74.3%,87.8%,99.8%,143%,71%,54.3%,190%,157%,102%,145%,57.3%,175%,22.2%,48.2%,29.7%,185%
"COc1cc([C@@H]2c3cc4c(cc3[C@@H](O[C@@H]3O[C@@H]5CO[C@@H](C)O[C@H]5[C@H](O)[C@H]3O)[C@H]3COC(=O)[C@H]23)OCO4)cc(OC)c1O [etoposide] + O=C(Nc1cccc(Cl)c1)Nc1ncc(CCNc2ncnc3ccsc23)s1 [SNS314] (first compound 0.02 µM, partner dose 0.0008 µM)",380%,55.6%,94.3%,45%,152%,36.6%,58%,71.5%,154%,106%,59.3%,183%,104%,67.7%,197%,59.6%,98.2%,130%,74.2%
"COc1cc([C@@H]2c3cc4c(cc3[C@@H](O[C@@H]3O[C@@H]5CO[C@@H](C)O[C@H]5[C@H](O)[C@H]3O)[C@H]3COC(=O)[C@H]23)OCO4)cc(OC)c1O [etoposide] + Cc1ccc(NC(=O)c2cccc(N(C)C)c2)cc1NC(=O)c1ccc(O)cc1 [ZM336372] (first compound 0.02 µM, partner dose 2 µM)",356%,88.7%,153%,73.1%,53.6%,84%,69.8%,877%,125%,94%,115%,51.2%,80%,119%,218%,205%,79.4%,37.5%,106%
"CC[C@]1(O)C[C@H]2CN(CCc3c([nH]c4ccccc34)[C@@](C(=O)OC)(c3cc4c(cc3OC)N(C=O)[C@H]3[C@@](O)(C(=O)OC)[C@H](OC(C)=O)[C@]5(CC)C=CCN6CC[C@]43[C@@H]65)C2)C1 [vincristine] + NCC(=O)Nc1ccc(-n2nc(C(F)(F)F)cc2-c2ccc3c(ccc4ccccc43)c2)cc1 [OSU03012] (first compound 0.0001 µM, partner dose 1 µM)",618%,56.7%,95.2%,8720%,116%,67.4%,59.4%,67.7%,173%,93.5%,155%,70.5%,50.1%,103%,38.7%,159%,43.7%,74.6%,67.9%
"CCCCCCCCCCCCCCCCCCOP(=O)([O-])OC1CC[N+](C)(C)CC1 [Perifosine] + C[C@@H]1CCN(C(=O)CC#N)C[C@@H]1N(C)c1ncnc2[nH]ccc12 [CP690550] (first compound 0.4 µM, partner dose 1 µM)",84.9%,97.8%,80.7%,374%,199%,342%,94.4%,88.1%,32.7%,88.4%,38%,83.2%,75.8%,101%,44.3%,97.2%,145%,145%,75.9%
"O=C(Nc1cc(C(F)(F)F)cc(C(F)(F)F)c1)c1cc(Cl)ccc1O + CN(NC(=O)CC(=O)NN(C)C(=S)c1ccccc1)C(=S)c1ccccc1 [STA4783] (first compound 0.016 µM, partner dose 0.006 µM)",222%,92%,110%,2960%,52.1%,1690%,128%,885%,236%,213%,118%,197%,242%,133%,94.4%,140%,115%,143%,101%
"O=C(Nc1cc(C(F)(F)F)cc(C(F)(F)F)c1)c1cc(Cl)ccc1O + COc1cc(Nc2ncc(F)c(Nc3ccc4c(n3)NC(=O)C(C)(C)O4)n2)cc(OC)c1OC [Tamatinib] (first compound 0.016 µM, partner dose 0.4 µM)",104%,99.7%,155%,183%,129%,432%,179%,90.1%,37.7%,86.2%,122%,186%,36.3%,122%,57.2%,151%,55.9%,69.7%,80.8%
"COc1cc([C@@H]2c3cc4c(cc3[C@@H](O[C@@H]3O[C@@H]5CO[C@@H](C)O[C@H]5[C@H](O)[C@H]3O)[C@H]3COC(=O)[C@H]23)OCO4)cc(OC)c1O [etoposide] + Cc1cc(N2CCOCC2)cc2[nH]c(-c3c(NC[C@@H](O)c4cccc(Cl)c4)cc[nH]c3=O)nc12 [BMS536924] (first compound 0.02 µM, partner dose 0.2 µM)",98.7%,73.9%,68.6%,176%,61.5%,264%,95.9%,87.6%,49.5%,99.3%,62.3%,51%,59.6%,120%,217%,193%,223%,161%,169%
"O=C(/C=C/c1cccnc1)NCCCCC1CCN(C(=O)c2ccccc2)CC1 + Cc1ccc(NC(=O)c2cccc(N(C)C)c2)cc1NC(=O)c1ccc(O)cc1 [ZM336372] (first compound 0.01 µM, partner dose 2 µM)",102%,184%,186%,56.5%,104%,6800%,77.2%,116%,909%,406%,449%,43.1%,261%,2390%,191%,69.8%,488%,113%,183%
"O=c1[nH]nc(Sc2ncc([N+](=O)[O-])s2)n1-c1ccc2c(c1)OCCO2 + CN(C)S(=O)(=O)c1ccc2c(c1)/C(=C/c1cc3c([nH]1)CCCC3)C(=O)N2 [SU6656] (first compound 0.2 µM, partner dose 0.4 µM)",93.1%,97.9%,64.8%,59.3%,96.8%,67.6%,119%,100%,154%,91.8%,107%,163%,119%,134%,90.1%,110%,49.1%,17.6%,185%
"Cc1ccc(Nc2nccc(N(C)c3ccc4c(C)n(C)nc4c3)n2)cc1S(N)(=O)=O [Pazopanib] + NCC(=O)Nc1ccc(-n2nc(C(F)(F)F)cc2-c2ccc3c(ccc4ccccc43)c2)cc1 [OSU03012] (first compound 0.4 µM, partner dose 1 µM)",463%,216%,120%,3150%,146%,165%,46.7%,96.7%,217%,82.7%,18.8%,121%,138%,103%,118%,110%,42.7%,122%,199%
"N#CC[C@H](C1CCCC1)n1cc(-c2ncnc3[nH]ccc23)cn1 [ruxolitinib] + O=C(O)c1ccc(-c2c[nH]c3ncc(-c4ccccc4)cc23)cc1C1CCCC1 [GSK650394] (first compound 1 µM, partner dose 0.16 µM)",69.8%,37%,103%,71.8%,102%,214%,174%,104%,114%,111%,189%,48.1%,68.3%,120%,172%,283%,77.4%,162%,62.5%
"COc1cc([C@@H]2c3cc4c(cc3[C@@H](O[C@@H]3O[C@@H]5CO[C@@H](C)O[C@H]5[C@H](O)[C@H]3O)[C@H]3COC(=O)[C@H]23)OCO4)cc(OC)c1O [etoposide] + C[C@@H]1CCN(C(=O)CC#N)C[C@@H]1N(C)c1ncnc2[nH]ccc12 [CP690550] (first compound 0.02 µM, partner dose 1 µM)",170%,163%,121%,25.5%,113%,37.3%,58.3%,67%,225%,80.3%,86.4%,115%,70.1%,64.7%,175%,194%,103%,59%,73.8%
"CCCCCCCCCCCCCCCCCCOP(=O)([O-])OC1CC[N+](C)(C)CC1 [Perifosine] + O=C(O)c1ccc(-c2c[nH]c3ncc(-c4ccccc4)cc23)cc1C1CCCC1 [GSK650394] (first compound 0.4 µM, partner dose 0.16 µM)",91.5%,38.3%,101%,59%,82.6%,174%,85.9%,90.4%,61.8%,112%,77.8%,63.2%,177%,116%,137%,67%,85.2%,50%,173%
"CC[C@]1(O)C[C@H]2CN(CCc3c([nH]c4ccccc34)[C@@](C(=O)OC)(c3cc4c(cc3OC)N(C=O)[C@H]3[C@@](O)(C(=O)OC)[C@H](OC(C)=O)[C@]5(CC)C=CCN6CC[C@]43[C@@H]65)C2)C1 [vincristine] + CC(C)(C)c1cnc(CSc2cnc(NC(=O)C3CCNCC3)s2)o1 [SNS-032] (first compound 0.0001 µM, partner dose 0.01 µM)",74.5%,129%,848%,145%,286%,165%,92.7%,81.1%,59.6%,80.8%,80.7%,297%,91.8%,124%,83.8%,291%,57.7%,22.5%,42.8%
